Laboratory results reported in publication PMC11525750.

Protein sequences, listed by entry. Tags and fused reporters are not part of them. Lines headed by an entry give the natural chain unless they say otherwise; changes in a name come on top.
UniProt Q8NCD3: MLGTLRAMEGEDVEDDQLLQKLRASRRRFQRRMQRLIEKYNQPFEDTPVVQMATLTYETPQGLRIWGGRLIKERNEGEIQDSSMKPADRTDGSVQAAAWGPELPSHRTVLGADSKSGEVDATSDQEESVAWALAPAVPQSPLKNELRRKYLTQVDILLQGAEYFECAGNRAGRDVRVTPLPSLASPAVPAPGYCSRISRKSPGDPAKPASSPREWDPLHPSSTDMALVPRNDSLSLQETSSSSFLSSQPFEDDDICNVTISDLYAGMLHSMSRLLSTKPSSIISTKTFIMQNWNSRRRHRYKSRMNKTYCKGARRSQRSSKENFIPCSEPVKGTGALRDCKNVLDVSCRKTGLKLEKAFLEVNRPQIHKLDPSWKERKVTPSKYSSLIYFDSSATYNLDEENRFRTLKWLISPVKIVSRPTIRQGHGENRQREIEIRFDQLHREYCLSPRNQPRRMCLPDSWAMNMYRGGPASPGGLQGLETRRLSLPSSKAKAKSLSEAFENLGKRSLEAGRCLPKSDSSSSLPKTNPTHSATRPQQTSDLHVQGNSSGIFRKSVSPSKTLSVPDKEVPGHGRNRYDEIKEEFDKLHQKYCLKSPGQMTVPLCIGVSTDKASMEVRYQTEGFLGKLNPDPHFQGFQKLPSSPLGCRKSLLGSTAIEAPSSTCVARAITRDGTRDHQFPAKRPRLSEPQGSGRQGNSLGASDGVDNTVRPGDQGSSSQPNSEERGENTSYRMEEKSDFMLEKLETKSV

What was measured:
Test in all cases: pull-down; SBP-tagged protein transfected into C4-2 or PC3 cells, H2O2 for 2 min, free thiols blocked with 20 mM MMTS, lysate on SA-Sepharose beads, washes with 1 % Triton X-100 and 1 M urea, elution with biotin, non-reducing immunoblotting (disulfide-linked conjugates)
[1] = molecular target: SBP-HJURP with Cys327 mutation (UniProt Q8NCD3)
[2] = molecular target: SBP-HJURP with Cys348 mutation (UniProt Q8NCD3)
[3] = molecular target: SBP-HJURP with Cys457 mutation (UniProt Q8NCD3)
[4] = molecular target: SBP-HJURP with Cys646 mutation (UniProt Q8NCD3)

binding [1]: binds
binding [2]: binds
binding [3]: binds
binding [4]: binds
B1: peroxiredoxin 1 (PRDX1) (enzyme, UniProt Q06830 1-199)
chain: MSSGNAKIGHPAPNFKATAVMPDGQFKDISLSDYKGKYVVFFFYPLDFTFVCPTEIIAFSDRAEEFKKLNCQVIGASVDSHFCHLAWVNTPKKQGGLGPMNIPLVSDPKRTIAQDYGVLKADEGISFRGLFIIDDKGILRQITVNDLPVGRSVDETLRLVQAFQFTDKHGEVCPAGWKPGSDTIKPDVQKSKEYFSKQK

No constants are given. Whether binding was seen depends on the method and setting. Binding seen in cells or lysates may run through a third protein. A result given as binding can be weak or reduced; the word gives no strength.
